# Library screen at single concentrations

The filed quantity is “Percent Effect” (%).
How 0% and 100% were set is not recorded. Most values in the screen are low, and negative values occur.
This is an unselected part of the compounds tested.
Two or more numbers in one place are separate tests of the same structure; such repeats can differ widely.
A dash means the value is not listed here; it may have been measured.

A: 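Whole-parasite assay of Trypanosoma brucei over 72 hours; the read-out is not stated. Compounds at 30 µM. Direction is inferred from retests: higher values go with stronger inhibition. Values scatter widely below zero; nearly all retest evidence comes from the higher of the two concentrations used. Of about 64,000 compounds tested this way, about 940 (1.5%) reached 50% or more in at least one test.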
B: 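Cell assay of Leishmania donovani living inside macrophages; the read-out is not stated. Tested at 30 µM. The record gives no direction; compounds that gave an IC50 in retests scored well above the rest, so higher reads as stronger inhibition. Size under these conditions: about 69,000 compounds, about 1,000 of them at 50% or above in at least one test.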

compound | A | B
CC(NCc1ccc(F)cc1)c1ccc(S(C)(=O)=O)cc1 (stereo not shown) | 7.532% | 3.868%
Cc1ccc([C@@H]2CN(C(=O)c3ccc[nH]3)C[C@H]2NC(=O)C2CC2)cc1 | -26.84% | -17.03%
O=C(CN1CCCC(c2noc(C3CC3)n2)C1)N1CCCC1 (stereo not shown) | -73.73% | 1.892%
Cc1noc(-c2ccnc(N3CCCN(C4CCOCC4)CC3)c2)n1 | -23.16% | 23.02%
Cc1csc(CN2CCC[C@]3(C[C@H](OCC4CC4)CO3)C2)n1 | -14.35% | -15.47%
Cc1nccn1C1CCCN(C(=O)c2ccc(N(C)C)nn2)C1 (stereo not shown) | -14.31% | -10.31%
COc1cccc(CNC(=O)c2nc3c(s2)CCN(C(C)=O)CC3)c1 | -449.8% | 34.68%
CCc1oc(C(=O)OC)cc1Cn1cccc(C(F)(F)F)c1=O | -64.7% | 19.12%
CN(C)S(=O)(=O)N1CC[C@]2(C[C@H](OCc3ccncc3)CO2)C1.O=C(O)C(F)(F)F | -14.19% | 19.32%
CN(Cc1nc(-c2ccccc2)no1)Cc1cnc(N2CCOCC2)s1 | -14.71% | -3.001%
O=C(O)C(F)(F)F.O=C(O)C(F)(F)F.[H][C@@]12C[C@@H](OCc3ccccn3)CN1CCN(c1ncccn1)C2 | -55.17% | 7.001%
O=C(NCC1COC2(CCOCC2)O1)c1csc(-c2cccc(Cl)c2)n1 (stereo not shown) | -5.407% | 49.6%
CCS(=O)(=O)CC(C)N(C)C(=O)COc1ccccc1C#N (stereo not shown) | -23.42% | 0.6868%
CCOCCC(=O)N(C)Cc1noc(C(C)C)n1 | -89.4% | 0.5615%
CN(C)c1ncc(CNC(=O)Nc2ccc(C(F)(F)F)cc2)n1C | 25.71% | 2.266%
O=C(C1CCCO1)N1CCC(n2cc(-c3ccc(F)cc3)nn2)CC1 (stereo not shown) | -8.342% | 37.8%
O=C(CCc1nnc(-c2ccccc2)o1)N1CCCC1c1ccc[nH]1 (stereo not shown) | -18.23% | 16.74%
Cc1nc(C#N)c(N2CCC(c3nc(-c4ccccc4)no3)CC2)o1 | -10.09% | 2.148%
CCCNC(=O)CC1OCCc2ccsc21 (stereo not shown) | -5.991% | -6.744%
CC(=O)N1CCC(c2nccnc2-c2ccc(F)c(F)c2)CC1 | 6.483% | -17.97%
CC(C)NC(=O)N1CC[C@@H](N(C)C)[C@@H]1Cc1ccccc1.O=C(O)C(F)(F)F | -9.656% | 19.16%
O=C1COC2(CCN(Cc3ccco3)CC2)CN1Cc1cccnc1 | -32.15% | 9.452%
CC(C(=O)N1CCN(C(=O)c2ccc(F)cc2)CC1)n1ccnc1 (stereo not shown) | -12.22% | -4.675%
[H][C@@]12CS(=O)(=O)C[C@]1([H])N(C(=O)Cc1ccc(CO)cc1)CCN2CC1CC1 | -21.6% | 4.881%
Cc1ccc2nc(-c3nc4c([nH]3)CC(C)(C)CNC4=O)cn2c1 | 106.8% | 29.49%
COc1cccc2c(=O)n(CCN3CCNCC3)cnc12 | -6.043% | 16.72%
CC[C@H](C)[C@H](NC(=O)c1ccccc1-n1cnnn1)C(=O)OC | -26.79% | -16.65%
CN(C)c1cc(CNC(=O)c2ccc(=O)[nH]n2)ccn1 | -34.8% | 16.1%
O=C1CSC(C(F)(F)F)c2c(O)nn(C3CCCC3)c2N1 (stereo not shown) | -7.568% | -8.506% & 21.75%
[H][C@]12CC=C(CN3CCCn4nc(C(=O)NCCO)cc4C3)[C@]([H])(C1)C2(C)C | -46.41% | -10.82%
O=C(c1cccc(F)c1)N1CCOC(c2nc(-c3ncccn3)no2)C1 (stereo not shown) | -15.36% | 1.565%
Cc1nccnc1C1CCN(C(=O)C(C)C)CC1 | -23.24% | 26.05%
CC(C)CN1Cc2nc(N3CCCC3)ncc2C1=O | -31.28% | -26.36%
CNS(=O)(=O)c1csc(C(=O)NCc2sccc2C)c1 | -42.28% | -55.11%
CC(C)N1CCN(C)C2(CCN(C(=O)c3ccnnc3)CC2)C1=O | -32.19% | -7.123% & -3.42%
CCc1c(C)nc2cc(C3CCN(Cc4ccccc4F)C3)nn2c1O (stereo not shown) | -24.85% | 7.152%
c1ccc(-c2nc(CN3CCOC(Cn4cncn4)C3)cs2)cc1 (stereo not shown) | -8.532% | 15.38%
CCOCCNC(=O)C1CCC(=O)N(CCc2ccc(Cl)cc2)C1 (stereo not shown) | -21.4% | 14.46%
Cc1nccn1-c1ncccc1CNC(=O)c1ccc(O)nc1 | 1.951% | 13.85%
CC(NC(=O)CCn1cccn1)c1ccc2c(c1)OCCO2 (stereo not shown) | -16.23% | -13.12%
CC1CN(C(=O)Nc2cc(C(F)(F)F)c[nH]c2=O)CCO1 (stereo not shown) | -14.53% | 16.92%
NC(=O)CN1CCC(NC(=O)N2CCCC2c2ccsc2)CC1 (stereo not shown) | -9.319% | 20.2%
COc1cccc(-c2nc(CNCc3cccnc3)cs2)c1 | -12.51% | 42.71%
Cc1nc(C(=O)N2CCC(c3nccn3Cc3ccncc3)CC2)cs1 | -27.75% | 7.317%
CNC(=O)c1ccc2c(c1)C1(CCN(C(C)C)CC1)C(=O)N2.O=C(O)C(F)(F)F | -29.31% | 4.452%
CC1CS(=O)(=O)CCN1CCCc1ccc(Cl)cc1 (stereo not shown) | - | 2.244%
O=C(NCCCn1cccn1)c1csc2c1CCCC2 | -40.8% | 10.36%
N#Cc1cccc(C(=O)N2CC(c3nc(-c4ccc[nH]c4=O)no3)C2)c1 | 0.03592% | 10.79% & 10.15%
CC(=O)Nc1cccc(C(C)NCC2CCS(=O)(=O)CC2)c1 (stereo not shown) | -11.48% | 13.84%
Cc1ccc2cc(C(=O)N3CCC(O)(C(F)(F)F)CC3)ccc2n1 | 9.098% | 8.675%

Some entries from above, unchanged:

- CC(C(=O)N1CCN(C(=O)c2ccc(F)cc2)CC1)n1ccnc1 (stereo not shown) | A: -12.22%; B: -4.675%
- CNS(=O)(=O)c1csc(C(=O)NCc2sccc2C)c1 | A: -42.28%; B: -55.11%
- Cc1noc(-c2ccnc(N3CCCN(C4CCOCC4)CC3)c2)n1 | A: -23.16%; B: 23.02%
- CN(Cc1nc(-c2ccccc2)no1)Cc1cnc(N2CCOCC2)s1 | A: -14.71%; B: -3.001%
- c1ccc(-c2nc(CN3CCOC(Cn4cncn4)C3)cs2)cc1 (stereo not shown) | A: -8.532%; B: 15.38%
- CNC(=O)c1ccc2c(c1)C1(CCN(C(C)C)CC1)C(=O)N2.O=C(O)C(F)(F)F | A: -29.31%; B: 4.452%

Source: ChEMBL document CHEMBL3988442, “University of Dundee, Small-Polar-MMV Screening Library” (2021).